Measurements published in the supplement of paper PMC3334620.
Over roughly 33,000 sequences, “E-score (-0.5 to 0.5)” has its median near -0.0034; the highest 2% begin near 0.25. The list shows a part of the results.

The sequences below were run against T1, Yap3 (UniProt P38749) (assay: PBM E-score (8-mer binding enrichment) (E-score (-0.5 to 0.5)); higher = stronger / more preferred TF binding). Conditions: protein concentration: 100 nM; construct: GST-full length.
T1 sequence: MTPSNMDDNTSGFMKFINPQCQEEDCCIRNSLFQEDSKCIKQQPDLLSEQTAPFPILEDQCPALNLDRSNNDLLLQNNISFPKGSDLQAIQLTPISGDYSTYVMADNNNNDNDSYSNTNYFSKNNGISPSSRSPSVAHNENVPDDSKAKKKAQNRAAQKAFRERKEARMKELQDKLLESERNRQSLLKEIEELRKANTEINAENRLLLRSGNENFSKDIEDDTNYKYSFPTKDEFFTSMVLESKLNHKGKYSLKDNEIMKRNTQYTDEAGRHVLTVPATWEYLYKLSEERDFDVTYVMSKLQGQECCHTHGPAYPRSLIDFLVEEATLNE
Procedure, shortened: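 Masliner-normalised scans of fluorescent anti-GST signal were the basis for scoring. That signal came from GST-tagged yeast transcription factors applied at about 100-200 nM to double-stranded universal all-10-mer Agilent arrays on fresh or once-stripped slides. Each ungapped eight-base word, pooled with its reverse complement, received an E-score from the Universal PBM Analysis Suite.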

Sequence | PBM E-score
ACCTTCAA | -0.0244
ACGAGCAC | -0.027
CAAGTCGC | -0.278
CCATCTCA | -0.0297
AATTTTAG | 0.107
AGTGCGGC | -0.165
ATACGCTC | 0.127
CTACTCTC | -0.0538
GGCCTATA | -0.205
CCATCGCA | -0.0895
CATCTGCG | -0.14
CCAGTGGA | -0.192
CCGACAAG | -0.0178
ATATGTGA | 0.186
CCCTCTCC | -0.411
AGTTGAAA | -0.0127
CGTTTTGA | 0.0477
CCAAGAGA | -0.0712
AGATGCGA | 0.0511
CTCCGGGA | -0.255
AGACTCTC | -0.123
CCATTAAC | 0.197
ACATTACT | 0.213
GAGTAATA | 0.273
AAGAAGCC | 0.0666

Sequence | PBM E-score
CGAGATTA | 0.21
TCGTGGAA | 0.245
AGGTTCAA | 0.063
ATAGTAGG | -0.0359
CTTCACAC | 0.105
GTTGAAAC | 0.115
TGGCACAA | -0.046
ATAACTGA | 0.181
CTGTGCGC | -0.102
TACCTAAA | 0.109
GGGCGGAC | -0.335
ACGCTGAA | -0.00885
CACTTGTC | -0.0142
GGGCTTTA | -0.28
CTCGCTGC | -0.0528
AGTCCCGA | -0.283
AAGACCGT | -0.117
GTCCAACA | 0.0985
CTTATGGC | -0.0005
CTAGCCGA | -0.0106
GCGCCTCC | -0.162
TAACTCCA | -0.104
AGTTAGGC | 0.0337
AACGTCAT | 0.0348
ACGTCCGG | -0.167

Sequence | PBM E-score
AGCATCAA | 0.125
GCGGCACA | -0.0765
GACCCGGC | -0.161
ACCTCGGA | 0.0262
AAGCGAGA | -0.0398
ATTTAACC | 0.123
GTTTAGCA | 0.035
AGCAAACG | -0.07
ATGAGCGA | 0.0437
TCTACAGA | -0.141
CACGTTGA | -0.0984
GGTTCGGA | -0.237
ATTTTCGC | 0.0317
CTGGCACA | -0.118
ATGGGATG | -0.013
ACCTAAGG | -0.116
GTCATCAA | 0.129
AACTCAAC | -0.0139
GCCAGGCC | -0.21
CAAATGAC | 0.0524
AATAGCAC | -0.156
GCGTAGTA | -0.0045
ACAACAAA | 0.167
CCTCGGCA | -0.0132
CTCTGGAA | 0.00245

Sequence | PBM E-score
TCCCGGGA | 0.0379
ACTACTTA | 0.0306
CGCTTCGA | 0.00551
CAGACGAA | 0.229
GGCCAGAA | 0.00561
CCGAGATA | 0.0737
CGAGCAAA | -0.0107
AAACCGCG | 0.202
CCACACAC | 0.0798
CCCCTAGA | -0.0743
AGAAATCA | 0.0967
GACGGTCA | -0.181
GGTCTCGA | -0.0349
ACCGAGGC | -0.139
GGCAGCGA | -0.265
GGGATACA | 0.034
ATGGAAAT | 0.215
AACGCGCG | 0.265
CTCCGGAC | -0.127
ATAGGGAT | 0.00571
CACTGGAC | -0.0821
GCGCCTGA | -0.012
AAGCACCG | -0.109
AGTTCATA | 0.134
CTTGCTTC | -0.0336

Sequence | PBM E-score
CGACGGAA | 0.0643
GCGAGGAC | -0.157
GTCACAAC | 0.0143
AGCCACGA | -0.204
AGTGATGG | 0.018
CACCTGGG | -0.178
AGGATAAC | 0.0577
ATCGATAC | 0.208
AGGCCATA | -0.0829
ACTTAGTG | -0.0604
AACTATGA | 0.145
GAACGTCC | -0.0106
TAGAAAAA | 0.123
ATGGTAAC | 0.218
CCATCGAC | -0.17
CCTAGCAG | -0.139
CTACGCAA | -0.0364
AGTCTTAT | 0.146
AGTTTACG | 0.0693
GTTGGTTA | 0.112
AAATGAAC | 0.0881
CATGCTTC | -0.024
CGCGGTCC | -0.309
CAGCTACG | -0.271
GACAGATA | 0.218

A second format for some results above:
CATCTGCG
  PBM E-score: -0.14
ACCTAAGG
  PBM E-score: -0.116
CAGACGAA
  PBM E-score: 0.229
CATGCTTC
  PBM E-score: -0.024

The results go on:

Sequence | PBM E-score
GTCATTAA | 0.3
GGGAAATA | 0.0786
CTATCTGC | -0.0717
CCCGCAGC | -0.242
GCCACGTA | -0.075
GATCGCAA | 0.191
CAACGGCA | -0.115
GGCAGTTA | 0.00106
CTGATTAC | 0.223
GGATAGTA | 0.145
GTCACCGA | -0.0201
CCGTAGGC | -0.155
GACAGCCC | -0.186
ACATGCAC | 0.0283
TATTAGCA | 0.252
ATAATATC | 0.194
GACTTTGA | 0.00307
CCCAGTGA | -0.24
AAGTCGGG | 0.119
CTGTATTA | 0.258
AGTCTCAT | -0.106
CACATGTA | 0.109
CCCAGTTA | -0.179
ACCGCCCG | -0.258
CGTTGGTA | -0.0592

Sequence | PBM E-score
CTCGACAC | -0.03
CTAGGGAA | 0.00311
CTATTGGA | 0.0965
AGTGCAAC | -0.0596
CGCAATAC | 0.0866
GAGCATCC | -0.118
AAACGCAA | 0.158
GTGCTCGA | -0.122
GTGTGGTA | -0.0645
GAGATGAC | 0.0918
GGTCGATA | 0.0652
CGACTCCA | -0.141
CGGACATA | 0.0315
ATACGGCC | -0.0637
CCCCATCG | -0.13
CCATCTGC | 0.131
AACCAGAC | -0.206
GTGGTGCA | -0.113
GCCGATCC | -0.155
GCCAAATA | 0.154
ACACAGGC | 0.113
GAACGTTA | -0.157

4 entries from above, as labelled records:
CTAGGGAA
  PBM E-score: 0.00311
CTATTGGA
  PBM E-score: 0.0965
AGTGCAAC
  PBM E-score: -0.0596
CGCAATAC
  PBM E-score: 0.0866
